{"source": "PubChem BioAssay AID652243 – Drosophila RNAi Screening Center | 2013", "aim": "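Fly regulators of androgen-dependent reporter output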 (primary screen)", "cells": "Drosophila S2R+ cells", "knock-down reagent": "long dsRNA against Drosophila genes", "timing": "72 h (48 h, then 24 h hormone)", "treatment": "synthetic androgen R1881 at 10 nM for 24 h", "measurement": "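Per-well raw luminescence of the androgen-driven firefly reporter and of the Renilla control, two replicates each, without normalisation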", "scale": "firefly reporter light: higher = more light from androgen-responsive reporter; Renilla control light: higher = more constitutive control signal (cell number, transfection)", "active means": "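Hit when the log firefly-to-Renilla ratio dropped or increased by a fixed fold versus the mean of GFP or LacZ controls across duplicate plates; lowering cut given as 1.5 and as 3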", "calls": "active = hit: reporter lowered or raised; inactive = no hit", "note": "The deposit covers about 24,000 reagents; shown is an unselected part of those with a known target gene and a result. Over the whole deposit, 246 (1%) got an active call. 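Plates not normalised; calls are printed but the firefly/Renilla ratio behind them is not deposited; fold cut for lowering reported inconsistently.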 Raw values are not corrected between plates. Not given: the amount of reagent."}
{"gene": "CG17290", "amplicon": "DRSC06662", "firefly reporter light, replicate 1": 92508, "firefly reporter light, replicate 2": 86108, "Renilla control light, replicate 1": 1.36e6, "Renilla control light, replicate 2": 1.36e6, "outcome": "inactive"}
{"gene": "CG17290", "amplicon": "DRSC27119", "firefly reporter light, replicate 1": 2.68e5, "firefly reporter light, replicate 2": 2.06e5, "Renilla control light, replicate 1": 8.54e5, "Renilla control light, replicate 2": 2.83e5, "outcome": "inactive"}
{"gene": "CG14506", "amplicon": "DRSC14858", "firefly reporter light, replicate 1": 2.60e5, "firefly reporter light, replicate 2": 2.37e5, "Renilla control light, replicate 1": 2.63e6, "Renilla control light, replicate 2": 3.37e6, "outcome": "inactive"}
{"gene": "dom", "amplicon": "DRSC04558", "firefly reporter light, replicate 1": 8.45e5, "firefly reporter light, replicate 2": 5.91e5, "Renilla control light, replicate 1": 1.56e6, "Renilla control light, replicate 2": 2.48e6, "outcome": "inactive"}
{"gene": "dom", "amplicon": "DRSC04559", "firefly reporter light, replicate 1": 1.60e5, "firefly reporter light, replicate 2": 1.29e5, "Renilla control light, replicate 1": 1.43e6, "Renilla control light, replicate 2": 1.04e6, "outcome": "inactive"}
{"gene": "dom", "amplicon": "DRSC29669", "firefly reporter light, replicate 1": 5.05e5, "firefly reporter light, replicate 2": 5.92e5, "Renilla control light, replicate 1": 6.48e5, "Renilla control light, replicate 2": 6.48e5, "outcome": "inactive"}
{"gene": "CG17754", "amplicon": "DRSC18131", "firefly reporter light, replicate 1": 67860, "firefly reporter light, replicate 2": 96170, "Renilla control light, replicate 1": 5.65e5, "Renilla control light, replicate 2": 5.37e5, "outcome": "inactive"}
{"gene": "St1", "amplicon": "DRSC04504", "firefly reporter light, replicate 1": 2.58e5, "firefly reporter light, replicate 2": 7.88e5, "Renilla control light, replicate 1": 6.87e5, "Renilla control light, replicate 2": 1.44e6, "outcome": "inactive"}
{"gene": "St1", "amplicon": "DRSC25543", "firefly reporter light, replicate 1": 8.46e5, "firefly reporter light, replicate 2": 8.45e5, "Renilla control light, replicate 1": 4.82e5, "Renilla control light, replicate 2": 7.73e5, "outcome": "inactive"}
{"gene": "eEF1alpha2", "amplicon": "DRSC14079", "firefly reporter light, replicate 1": 1.21e6, "firefly reporter light, replicate 2": 8.44e5, "Renilla control light, replicate 1": 1.15e6, "Renilla control light, replicate 2": 7.24e5, "outcome": "inactive"}
{"gene": "eEF1alpha2", "amplicon": "DRSC16658", "firefly reporter light, replicate 1": 1.18e5, "firefly reporter light, replicate 2": 1.60e5, "Renilla control light, replicate 1": 1.72e6, "Renilla control light, replicate 2": 1.65e6, "outcome": "inactive"}
{"gene": "Nuf2", "amplicon": "DRSC03123", "firefly reporter light, replicate 1": 7.73e5, "firefly reporter light, replicate 2": 1.01e6, "Renilla control light, replicate 1": 2.79e6, "Renilla control light, replicate 2": 2.90e6, "outcome": "inactive"}
{"gene": "Nurf-38", "amplicon": "DRSC04629", "firefly reporter light, replicate 1": 2.24e5, "firefly reporter light, replicate 2": 1.47e5, "Renilla control light, replicate 1": 1.25e6, "Renilla control light, replicate 2": 1.07e6, "outcome": "inactive"}
{"gene": "Nurf-38", "amplicon": "DRSC26858", "firefly reporter light, replicate 1": 3.19e5, "firefly reporter light, replicate 2": 2.91e5, "Renilla control light, replicate 1": 1.17e6, "Renilla control light, replicate 2": 5.64e5, "outcome": "inactive"}
